One experiment concerns the target PKCδ-mRFP-IκBα (UniProt P25963). As to the kind of experiment: CUPID (co-translocation of a GFP-tagged prey to the membrane with a PKCδ-mRFP-fused bait after PMA, confocal microscopy); bait and prey plasmids co-transfected into HEK293T cells; PMA 500 nM by the methods (0.1 nM by the legend of Figure 1A); screen of about 500 GFP-tagged kinases and confirmation with both tag orientations.

By UniProt entry, the sequences of proteins in these tests, tags left out. Where a name states a change or a piece, a line headed by the entry shows the natural chain unless it says otherwise.
UniProt P25963: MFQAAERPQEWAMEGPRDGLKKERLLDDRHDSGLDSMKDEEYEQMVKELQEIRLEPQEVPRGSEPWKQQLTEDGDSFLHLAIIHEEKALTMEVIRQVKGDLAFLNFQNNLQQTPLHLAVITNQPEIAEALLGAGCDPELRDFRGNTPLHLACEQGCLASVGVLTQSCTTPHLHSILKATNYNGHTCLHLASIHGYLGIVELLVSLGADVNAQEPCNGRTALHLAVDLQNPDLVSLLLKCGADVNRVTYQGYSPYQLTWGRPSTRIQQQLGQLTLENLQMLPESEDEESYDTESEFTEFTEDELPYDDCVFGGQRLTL
UniProt Q15349: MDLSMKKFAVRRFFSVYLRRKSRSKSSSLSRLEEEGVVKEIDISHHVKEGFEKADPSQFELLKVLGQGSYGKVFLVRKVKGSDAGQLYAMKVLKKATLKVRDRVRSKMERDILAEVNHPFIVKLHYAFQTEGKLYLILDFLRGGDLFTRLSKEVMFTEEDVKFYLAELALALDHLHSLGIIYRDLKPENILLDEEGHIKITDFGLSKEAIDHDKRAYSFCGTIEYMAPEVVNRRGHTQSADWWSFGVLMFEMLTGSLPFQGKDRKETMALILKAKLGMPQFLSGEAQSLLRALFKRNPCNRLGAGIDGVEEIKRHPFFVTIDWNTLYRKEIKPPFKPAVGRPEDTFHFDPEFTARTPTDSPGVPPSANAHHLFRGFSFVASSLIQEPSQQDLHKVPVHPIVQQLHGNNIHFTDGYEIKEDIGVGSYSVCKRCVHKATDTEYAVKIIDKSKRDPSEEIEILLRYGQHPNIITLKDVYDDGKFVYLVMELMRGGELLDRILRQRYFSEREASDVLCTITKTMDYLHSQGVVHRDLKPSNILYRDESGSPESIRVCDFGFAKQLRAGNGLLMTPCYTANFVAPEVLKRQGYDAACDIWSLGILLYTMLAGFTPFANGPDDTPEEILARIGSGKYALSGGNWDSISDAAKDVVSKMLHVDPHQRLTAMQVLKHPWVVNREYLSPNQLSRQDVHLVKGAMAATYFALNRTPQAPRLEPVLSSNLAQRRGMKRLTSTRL

The next experiment addresses GFP-tagged RSK3 (UniProt Q15349). The experiment in a line: co-IP; HEK293T co-transfected with Myc/His-IκBα and pAC-GFP-RSK3 (WT or DM1-3); immunoprecipitated with anti-RSK3 or control IgG, blotted with anti-IκBα antibody; in Figure 4E also with RSK3I (0.1, 0.5, 1 and 10 μM) or DMSO.
In another experiment the target is Myc/His-tagged RSK3 (UniProt Q15349). The experiment in a line: co-IP; HEK293T co-transfected with Myc/His-RSK3 and GFP-IκBα (WT or DM1-4); RIPA lysate, immunoprecipitated with anti-RSK3 antibody and protein G agarose, blotted with anti-GFP antibody.
For the next experiment, the target named is PKCδ-mRFP-RSK3 (UniProt Q15349). The experiment in a line: CUPID (co-translocation of a GFP-tagged prey to the membrane with a PKCδ-mRFP-fused bait after PMA, confocal microscopy); bait and prey plasmids co-transfected into HEK293T cells; PMA 500 nM by the methods (0.1 nM by the legend of Figure 1A); screen of about 500 GFP-tagged kinases and confirmation with both tag orientations.

Results are given in words; binding and its absence hold for the method and conditions named. For some of these results: Binding seen in cells or lysates may run through a third protein. Some binding calls cover weakened binding; strength is not graded here.

As to “GFP-tagged RSK3 (from UniProt Q15349 1-733)”, the binding entry with PKCδ-mRFP-IκBα is listed as “binds”.

For “Myc/His-IκBα (from UniProt P25963 1-317)”, in the experiment with GFP-tagged RSK3, the binding entry is “binds”.

On to “GFP-tagged IκBα (from UniProt P25963 1-317)”, for which the binding entry with Myc/His-tagged RSK3 and in the experiment with PKCδ-mRFP-RSK3 was “binds” each time.
